Measurements reported in the supplement of paper PMC10849652.
Some of the results follow.

Sequences of proteins named here, by UniProt entry; tags and fusion partners are left off. A change or cut given only in a name is not applied to a line headed by its entry.
UniProt Q9P287, whole entry, looked up: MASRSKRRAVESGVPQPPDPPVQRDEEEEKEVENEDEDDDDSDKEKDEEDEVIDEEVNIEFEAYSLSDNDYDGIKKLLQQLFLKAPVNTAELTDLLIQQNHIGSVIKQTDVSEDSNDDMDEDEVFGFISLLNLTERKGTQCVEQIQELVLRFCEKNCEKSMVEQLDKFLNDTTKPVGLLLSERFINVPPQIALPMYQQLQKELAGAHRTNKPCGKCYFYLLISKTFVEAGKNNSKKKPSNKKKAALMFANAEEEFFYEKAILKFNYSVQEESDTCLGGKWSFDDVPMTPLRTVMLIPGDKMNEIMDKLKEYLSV
UniProt Q9H3K6: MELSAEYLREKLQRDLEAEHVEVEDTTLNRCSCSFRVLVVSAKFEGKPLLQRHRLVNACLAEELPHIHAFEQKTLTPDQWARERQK
UniProt Q8WXE1: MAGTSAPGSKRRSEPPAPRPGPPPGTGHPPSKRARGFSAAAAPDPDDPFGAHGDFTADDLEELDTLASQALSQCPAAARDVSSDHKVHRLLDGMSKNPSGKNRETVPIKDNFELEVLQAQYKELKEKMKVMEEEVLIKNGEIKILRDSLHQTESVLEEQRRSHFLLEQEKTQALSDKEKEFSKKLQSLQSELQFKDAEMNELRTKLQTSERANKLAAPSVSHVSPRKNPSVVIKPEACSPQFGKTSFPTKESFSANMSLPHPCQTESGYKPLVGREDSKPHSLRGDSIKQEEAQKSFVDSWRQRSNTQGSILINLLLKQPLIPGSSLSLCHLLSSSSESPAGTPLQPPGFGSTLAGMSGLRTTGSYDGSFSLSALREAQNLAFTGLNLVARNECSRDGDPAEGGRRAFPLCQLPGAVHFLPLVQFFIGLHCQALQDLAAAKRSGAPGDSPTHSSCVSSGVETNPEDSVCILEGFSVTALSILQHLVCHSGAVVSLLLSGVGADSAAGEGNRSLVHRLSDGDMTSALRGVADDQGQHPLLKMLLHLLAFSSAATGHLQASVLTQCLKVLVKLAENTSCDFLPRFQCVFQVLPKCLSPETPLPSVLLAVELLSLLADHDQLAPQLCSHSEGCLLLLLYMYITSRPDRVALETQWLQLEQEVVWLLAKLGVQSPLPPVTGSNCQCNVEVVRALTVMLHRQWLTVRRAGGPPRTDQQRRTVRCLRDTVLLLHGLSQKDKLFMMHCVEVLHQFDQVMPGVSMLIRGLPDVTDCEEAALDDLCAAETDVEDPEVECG
UniProt Q14457, whole entry, looked up: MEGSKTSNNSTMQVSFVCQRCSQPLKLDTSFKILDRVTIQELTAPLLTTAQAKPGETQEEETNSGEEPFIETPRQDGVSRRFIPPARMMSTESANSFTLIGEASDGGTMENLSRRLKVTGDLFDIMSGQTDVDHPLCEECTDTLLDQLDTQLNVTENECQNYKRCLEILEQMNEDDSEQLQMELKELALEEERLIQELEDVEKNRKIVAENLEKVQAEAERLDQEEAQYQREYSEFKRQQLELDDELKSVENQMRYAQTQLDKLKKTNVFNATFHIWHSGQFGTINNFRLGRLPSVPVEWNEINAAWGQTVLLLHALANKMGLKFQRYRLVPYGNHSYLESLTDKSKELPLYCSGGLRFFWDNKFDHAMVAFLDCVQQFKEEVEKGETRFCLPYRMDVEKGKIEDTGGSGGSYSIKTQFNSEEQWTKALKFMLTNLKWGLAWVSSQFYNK
UniProt Q9H0E9, whole entry, looked up: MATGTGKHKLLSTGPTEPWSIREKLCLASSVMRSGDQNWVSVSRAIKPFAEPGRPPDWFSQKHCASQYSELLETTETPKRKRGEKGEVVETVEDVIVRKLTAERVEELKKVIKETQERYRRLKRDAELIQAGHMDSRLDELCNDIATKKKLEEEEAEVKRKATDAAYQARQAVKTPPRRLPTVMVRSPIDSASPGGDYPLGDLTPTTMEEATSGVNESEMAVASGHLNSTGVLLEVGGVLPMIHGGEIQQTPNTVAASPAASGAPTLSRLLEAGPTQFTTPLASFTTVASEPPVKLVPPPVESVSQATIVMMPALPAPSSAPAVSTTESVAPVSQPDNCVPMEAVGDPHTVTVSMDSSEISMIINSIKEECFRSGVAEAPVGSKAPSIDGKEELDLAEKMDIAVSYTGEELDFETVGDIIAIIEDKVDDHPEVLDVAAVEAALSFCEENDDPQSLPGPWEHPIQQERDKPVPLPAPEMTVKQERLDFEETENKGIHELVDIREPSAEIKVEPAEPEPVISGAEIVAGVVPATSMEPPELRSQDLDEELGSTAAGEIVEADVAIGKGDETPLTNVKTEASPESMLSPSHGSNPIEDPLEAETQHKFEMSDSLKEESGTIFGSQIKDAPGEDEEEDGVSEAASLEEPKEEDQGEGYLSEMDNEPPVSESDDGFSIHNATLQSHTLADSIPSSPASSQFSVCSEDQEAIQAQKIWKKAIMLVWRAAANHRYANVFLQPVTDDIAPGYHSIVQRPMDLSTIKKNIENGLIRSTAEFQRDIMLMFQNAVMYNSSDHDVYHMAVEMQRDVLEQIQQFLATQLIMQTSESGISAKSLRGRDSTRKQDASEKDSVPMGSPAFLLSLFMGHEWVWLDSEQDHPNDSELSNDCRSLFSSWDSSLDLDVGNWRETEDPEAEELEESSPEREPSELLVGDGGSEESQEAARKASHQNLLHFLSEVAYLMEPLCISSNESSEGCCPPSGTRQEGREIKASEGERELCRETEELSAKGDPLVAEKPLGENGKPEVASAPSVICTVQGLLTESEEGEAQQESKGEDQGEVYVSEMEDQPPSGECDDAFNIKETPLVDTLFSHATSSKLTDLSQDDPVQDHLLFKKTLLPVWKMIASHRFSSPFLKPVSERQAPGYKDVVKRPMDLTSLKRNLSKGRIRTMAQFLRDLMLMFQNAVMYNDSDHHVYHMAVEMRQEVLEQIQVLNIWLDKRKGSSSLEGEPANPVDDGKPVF
UniProt Q13535: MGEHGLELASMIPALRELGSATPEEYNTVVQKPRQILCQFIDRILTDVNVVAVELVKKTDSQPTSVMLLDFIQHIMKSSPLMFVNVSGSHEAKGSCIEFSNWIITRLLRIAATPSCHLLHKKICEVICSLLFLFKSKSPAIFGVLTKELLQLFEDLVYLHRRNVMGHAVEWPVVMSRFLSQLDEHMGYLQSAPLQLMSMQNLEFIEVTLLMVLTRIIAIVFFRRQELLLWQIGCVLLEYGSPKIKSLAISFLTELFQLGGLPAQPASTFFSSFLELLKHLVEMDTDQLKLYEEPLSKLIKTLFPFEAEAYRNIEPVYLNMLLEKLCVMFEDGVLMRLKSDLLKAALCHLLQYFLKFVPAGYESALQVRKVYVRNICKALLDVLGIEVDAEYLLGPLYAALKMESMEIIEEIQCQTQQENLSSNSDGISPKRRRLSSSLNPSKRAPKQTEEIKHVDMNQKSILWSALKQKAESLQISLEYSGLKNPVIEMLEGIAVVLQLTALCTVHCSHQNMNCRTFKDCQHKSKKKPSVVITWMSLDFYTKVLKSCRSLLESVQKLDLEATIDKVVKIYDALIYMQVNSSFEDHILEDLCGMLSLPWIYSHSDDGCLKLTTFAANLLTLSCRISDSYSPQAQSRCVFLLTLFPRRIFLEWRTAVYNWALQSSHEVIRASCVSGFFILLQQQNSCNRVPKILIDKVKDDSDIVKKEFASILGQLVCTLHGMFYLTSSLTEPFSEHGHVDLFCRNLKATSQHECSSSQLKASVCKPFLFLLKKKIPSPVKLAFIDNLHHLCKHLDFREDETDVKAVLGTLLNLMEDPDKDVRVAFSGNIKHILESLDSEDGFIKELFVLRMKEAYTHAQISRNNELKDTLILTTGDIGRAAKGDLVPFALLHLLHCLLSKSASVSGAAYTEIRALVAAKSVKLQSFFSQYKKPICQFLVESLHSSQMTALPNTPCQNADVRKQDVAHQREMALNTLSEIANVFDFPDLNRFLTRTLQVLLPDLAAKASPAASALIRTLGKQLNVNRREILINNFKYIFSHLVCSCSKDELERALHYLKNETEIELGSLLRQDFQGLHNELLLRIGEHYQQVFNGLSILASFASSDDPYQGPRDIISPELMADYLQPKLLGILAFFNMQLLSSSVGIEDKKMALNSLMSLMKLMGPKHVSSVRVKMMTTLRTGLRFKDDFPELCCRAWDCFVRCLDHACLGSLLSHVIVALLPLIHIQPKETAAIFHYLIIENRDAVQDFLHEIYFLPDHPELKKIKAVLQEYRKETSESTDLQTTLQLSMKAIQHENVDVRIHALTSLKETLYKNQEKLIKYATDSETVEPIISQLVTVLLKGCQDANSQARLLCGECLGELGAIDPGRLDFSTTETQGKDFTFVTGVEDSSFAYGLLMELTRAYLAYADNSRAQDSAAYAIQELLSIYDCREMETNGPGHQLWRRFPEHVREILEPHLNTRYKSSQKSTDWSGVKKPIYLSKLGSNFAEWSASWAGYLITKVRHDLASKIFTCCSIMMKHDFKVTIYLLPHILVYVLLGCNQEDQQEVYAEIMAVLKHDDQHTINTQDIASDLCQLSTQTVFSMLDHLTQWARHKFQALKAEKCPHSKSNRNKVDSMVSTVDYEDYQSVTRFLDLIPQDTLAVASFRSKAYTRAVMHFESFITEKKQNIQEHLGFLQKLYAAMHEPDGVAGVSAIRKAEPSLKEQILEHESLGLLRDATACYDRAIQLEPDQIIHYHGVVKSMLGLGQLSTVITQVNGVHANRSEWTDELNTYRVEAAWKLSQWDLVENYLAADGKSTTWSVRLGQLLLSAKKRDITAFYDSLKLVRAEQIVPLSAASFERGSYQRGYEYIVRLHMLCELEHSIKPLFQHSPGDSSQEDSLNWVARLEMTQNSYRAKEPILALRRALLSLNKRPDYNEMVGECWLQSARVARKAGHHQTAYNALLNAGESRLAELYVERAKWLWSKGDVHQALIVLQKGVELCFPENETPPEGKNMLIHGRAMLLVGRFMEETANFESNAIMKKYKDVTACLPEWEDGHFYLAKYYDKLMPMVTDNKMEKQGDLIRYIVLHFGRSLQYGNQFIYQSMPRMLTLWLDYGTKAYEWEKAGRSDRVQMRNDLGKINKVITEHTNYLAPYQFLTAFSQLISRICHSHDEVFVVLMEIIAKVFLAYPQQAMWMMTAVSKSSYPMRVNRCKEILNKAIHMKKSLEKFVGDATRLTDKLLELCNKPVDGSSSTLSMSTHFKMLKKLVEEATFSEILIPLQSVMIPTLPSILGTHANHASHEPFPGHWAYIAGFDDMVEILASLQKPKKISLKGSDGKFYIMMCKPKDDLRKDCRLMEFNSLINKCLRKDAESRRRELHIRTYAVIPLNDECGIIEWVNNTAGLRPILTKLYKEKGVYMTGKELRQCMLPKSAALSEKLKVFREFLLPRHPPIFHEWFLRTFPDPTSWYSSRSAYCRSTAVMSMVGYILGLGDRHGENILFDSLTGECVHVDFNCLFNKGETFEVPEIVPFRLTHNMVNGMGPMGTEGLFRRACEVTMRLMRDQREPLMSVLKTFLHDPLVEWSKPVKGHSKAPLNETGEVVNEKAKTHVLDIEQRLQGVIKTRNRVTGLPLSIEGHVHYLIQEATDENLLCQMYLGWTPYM
UniProt Q92843: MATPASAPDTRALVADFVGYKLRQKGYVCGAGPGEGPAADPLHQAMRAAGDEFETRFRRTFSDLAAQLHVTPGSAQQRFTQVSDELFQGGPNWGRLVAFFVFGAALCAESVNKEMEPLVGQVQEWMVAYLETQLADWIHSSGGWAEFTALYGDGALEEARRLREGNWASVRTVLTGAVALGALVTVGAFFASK
UniProt Q9NUP1: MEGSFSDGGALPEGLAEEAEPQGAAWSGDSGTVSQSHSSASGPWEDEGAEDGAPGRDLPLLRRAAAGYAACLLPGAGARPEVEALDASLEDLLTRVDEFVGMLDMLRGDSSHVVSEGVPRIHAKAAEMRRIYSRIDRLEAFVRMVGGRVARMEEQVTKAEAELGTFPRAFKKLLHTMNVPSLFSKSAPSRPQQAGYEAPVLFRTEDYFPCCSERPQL
UniProt P55957: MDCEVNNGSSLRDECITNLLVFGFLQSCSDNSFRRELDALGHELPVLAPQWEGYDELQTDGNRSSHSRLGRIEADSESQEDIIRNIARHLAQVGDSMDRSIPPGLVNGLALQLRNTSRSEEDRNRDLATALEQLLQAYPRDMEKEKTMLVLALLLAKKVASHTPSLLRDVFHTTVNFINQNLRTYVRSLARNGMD
UniProt Q9Y679: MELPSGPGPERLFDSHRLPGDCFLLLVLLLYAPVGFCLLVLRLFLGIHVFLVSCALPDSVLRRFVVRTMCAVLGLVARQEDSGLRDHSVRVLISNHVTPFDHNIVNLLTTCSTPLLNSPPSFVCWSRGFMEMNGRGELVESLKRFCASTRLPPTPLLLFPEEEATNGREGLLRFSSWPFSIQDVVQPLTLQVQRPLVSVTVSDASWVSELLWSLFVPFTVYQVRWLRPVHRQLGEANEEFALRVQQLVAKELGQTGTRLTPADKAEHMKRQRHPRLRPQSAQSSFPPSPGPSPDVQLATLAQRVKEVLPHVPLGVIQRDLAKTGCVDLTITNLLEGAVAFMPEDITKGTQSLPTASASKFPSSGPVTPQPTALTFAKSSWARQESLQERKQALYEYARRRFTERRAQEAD

Legend:
Assay in all cases: log2 fold change, soluble protein after heating vs DMSO (PISA); higher = thermal stabilisation; K562 cells, 10 uM, 30 min; active = over 0.2 and 3.5 SD of the protein, either way, in both replicates (recomputed)
[1] = compound: NC(=O)Nc1cc(-c2cccc(F)c2)sc1C(=O)N[C@H]1CCCNC1
Summary of the method: (§1)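 Thermal stability values are relative to control samples and come from duplicates. They are expressed as log2 fold changes. For measurement, K562 cells (2×10^6 cells/mL) received 10 μM compound for 30 min, and aliquots were heated for 3 min over 48°C-58°C, pooled, and extracted at 4°C in PBS with 0.5% NP-40. Soluble protein, the supernatant after 21,000xg for 90 min, was quantified by TMTpro 16plex LC-MS/MS with equalised channel sums.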

[2] = compound: NC(=O)c1cnc(N[C@@H]2CCCC[C@@H]2N)nc1Nc1cccc(-n2nccn2)c1
Summary of the method: as §1

[3] = compound: NC1(c2ccc(-c3nc4ccn5c(=O)[nH]nc5c4cc3-c3ccccc3)cc2)CCC1
Summary of the method: as §1

[4] = compound: NCC(=O)Nc1ccc(-n2nc(C(F)(F)F)cc2-c2ccc3c(ccc4ccccc43)c2)cc1
Summary of the method: as §1

entinostat = compound: Nc1ccccc1NC(=O)c1ccc(CNC(=O)OCc2cccnc2)cc1 [entinostat]
Summary of the method: as §1

vorinostat = compound: O=C(CCCCCCC(=O)Nc1ccccc1)NO [vorinostat]
Summary of the method: as §1

citarinostat = compound: O=C(CCCCCCNC(=O)c1cnc(N(c2ccccc2)c2ccccc2Cl)nc1)NO [citarinostat]
Summary of the method: as §1

silmitasertib = compound: O=C(O)c1ccc2c(c1)nc(Nc1cccc(Cl)c1)c1ccncc12 [silmitasertib]
Summary of the method: as §1

[5] = compound: O=C1NC(=O)C(c2cnc3ccccn23)=C1c1cn2c3c(cc(F)cc13)CN(C(=O)N1CCCCC1)CC2
Summary of the method: as §1

[6] = compound: c1cc(OCCN2CCCCC2)cc(-c2n[nH]c3ccc(-c4nnc[nH]4)cc23)c1
Summary of the method: as §1

entospletinib = compound: c1cn2cc(-c3ccc4cn[nH]c4c3)nc(Nc3ccc(N4CCOCC4)cc3)c2n1 [entospletinib]
Summary of the method: as §1

Measured: log2 fold change

AURKA (UniProt O14965)
inactive: [1] 0.077 | [2] -0.02 | [3] 0.059 | [4] -0.033 | entinostat -0.072 | vorinostat -0.06 | citarinostat -0.036 | silmitasertib 0.015 | [5] 0.105 | [6] -0.328

BMP2K (UniProt Q9NSY1)
inactive: [1] 0.297 | [2] 0.076 | [3] 0.035 | [4] -0.007 | entinostat -0.037 | vorinostat -0.078 | citarinostat -0.053 | silmitasertib 0.031 | [5] 0.291 | [6] 0.241

BCCIP (UniProt Q9P287)
inactive: [1] 0.023 | [2] -0.008 | [3] -0.006 | [4] -0.04 | entinostat -0.052 | vorinostat 0.045 | citarinostat 0.022 | silmitasertib 0.049 | [5] -0.012 | [6] -0.079

BOLA2 (UniProt Q9H3K6)
inactive: [1] -0.007 | [2] -0.05 | [3] -0.05 | [4] -0.012 | entinostat 0.004 | vorinostat -0.005 | citarinostat 0.037 | silmitasertib 0.007 | [5] -0.119 | [6] 0.009 | entospletinib 0

ATRIP (UniProt Q8WXE1)
inactive: [1] -0.017 | [2] -0.059 | [3] -0.133 | [4] -0.033 | entinostat -0.026 | vorinostat -0.012 | citarinostat -0.028 | silmitasertib 0.112 | [5] -0.003 | [6] 0.004 | entospletinib -0.064

BCCIP isoform 2 (UniProt Q9P287)
inactive: [1] 0 | [2] -0.001 | [3] -0.096 | [4] -0.011 | entinostat 0.027 | vorinostat 0.033 | citarinostat 0.021 | silmitasertib 0.096 | [5] -0.029 | [6] -0.031

BABAM2 (UniProt Q9NXR7)
inactive: [1] -0.01 | [2] 0.022 | [3] -0.014 | [4] 0.117 | entinostat -0.066 | vorinostat -0.052 | citarinostat -0.001 | silmitasertib 0.079 | [5] -0.022 | [6] -0.021 | entospletinib 0.034

BRK1 isoform 2 (UniProt Q8WUW1)
inactive: [1] -0.071 | [2] 0.033 | [3] -0.019 | [4] 0.065 | entinostat 0.079 | vorinostat -0.06 | citarinostat 0.031 | silmitasertib -0.063 | [5] -0.16 | [6] -0.078

BECN1 (UniProt Q14457)
inactive: [1] 0.045 | [2] 0.083 | [3] -0.006 | [4] -0.016 | entinostat -0.024 | vorinostat -0.073 | citarinostat -0.046 | silmitasertib 0.026 | [5] -0.071 | [6] 0.021

BCAP29 isoform 2 (UniProt Q9UHQ4)
inactive: [1] 0.001 | [2] 0.049 | [3] 0.034 | [4] -0.094 | entinostat -0.014 | vorinostat -0.064 | citarinostat -0.015 | silmitasertib 0.031 | [5] -0.043 | [6] -0.036

BRD8 (UniProt Q9H0E9)
inactive: [1] 0.008 | [2] -0.107 | [3] 0.038 | [4] -0.014 | entinostat -0.041 | vorinostat -0.125 | citarinostat -0.12 | silmitasertib 0.038 | [5] 0.022 | [6] -0.059

ATRN (UniProt O75882)
active: [5] -0.538
inactive: [1] -0.007 | [2] -0.023 | [3] -0.073 | [4] -0.031 | entinostat -0.016 | vorinostat -0.006 | citarinostat -0.004 | silmitasertib 0.006 | [6] -0.092

ATR (UniProt Q13535)
inactive: [1] -0.003 | [2] 0.002 | [3] 0.044 | [4] -0.089 | entinostat 0.017 | vorinostat 0.057 | citarinostat 0.039 | silmitasertib 0.035 | [5] -0.058 | [6] -0.066

BAP1 (UniProt Q92560)
inactive: [1] -0.073 | [2] 0.085 | [3] 0.073 | [4] 0.012 | entinostat -0.054 | vorinostat 0.13 | citarinostat 0.058 | silmitasertib 0.04 | [5] 0.076 | [6] -0.142

BLVRB (UniProt P30043)
inactive: [1] 0.069 | [2] 0.006 | [3] -0.116 | [4] 0.018 | entinostat 0.058 | vorinostat 0 | citarinostat 0.058 | silmitasertib 0.01 | [5] 0.021 | [6] -0.035

BRIX1 (UniProt Q8TDN6)
inactive: [1] 0.056 | [2] -0.025 | [3] 0.171 | [4] 0.132 | entinostat -0.008 | vorinostat 0.059 | citarinostat -0.05 | silmitasertib 0.191 | [5] 0.401 | [6] -0.437

BLOC1S3 (UniProt Q6QNY0)
inactive: [1] 0.057 | [2] 0 | [3] -0.014 | [4] -0.023 | entinostat -0.06 | vorinostat 0.039 | citarinostat -0.018 | silmitasertib 0.006 | [5] -0.013 | [6] -0.014

BCL2L2 isoform 2 (UniProt Q92843)
inactive: [1] -0.059 | [2] 0.072 | [3] 0.117 | [4] -0.005 | entinostat 0.041 | vorinostat 0.038 | citarinostat -0.032 | silmitasertib 0.088 | [5] 0.057 | [6] -0.213 | entospletinib -0.077

AZGP1 (UniProt P25311)
inactive: [1] 0.77 | [2] 0.265 | [3] -0.088 | [4] 0.355 | entinostat 0.487 | vorinostat 0.168 | citarinostat -0.482 | silmitasertib -0.34 | [5] -0.09 | [6] 1.45 | entospletinib -0.075

B4GALT1 (UniProt P15291)
inactive: [1] 0.053 | [2] 0.114 | [3] -0.279 | [4] 0.199 | entinostat -0.01 | vorinostat -0.01 | citarinostat 0 | silmitasertib 0 | [5] -0.039 | [6] -0.027

BLOC1S4 (UniProt Q9NUP1)
inactive: [1] -0.052 | [2] 0.02 | [3] 0.001 | [4] -0.043 | entinostat -0.056 | vorinostat 0.038 | citarinostat 0.133 | silmitasertib -0.016 | [5] 0.053 | [6] -0.015 | entospletinib 0.075

BRD4 (UniProt O60885)
active: vorinostat -0.463
inactive: [1] -0.031 | [2] -0.096 | [3] -0.112 | [4] -0.119 | entinostat -0.097 | citarinostat -0.123 | silmitasertib 0.024 | [5] -0.129 | [6] 0.028

BID isoform 2 (UniProt P55957)
inactive: [1] 0.032 | [2] 0.019 | [3] -0.037 | [4] 0.052 | entinostat -0.018 | vorinostat -0.039 | citarinostat 0.006 | silmitasertib -0.008 | [5] 0.042 | [6] 0.005

BCL9L (UniProt Q86UU0)
active: [6] 0.241
inactive: [1] 0.037 | [2] -0.009 | [3] 0.03 | [4] 0.021 | entinostat -0.002 | vorinostat 0.012 | citarinostat 0.017 | silmitasertib -0.038 | [5] -0.045

B4GALNT1 (UniProt Q00973)
inactive: [1] -0.001 | [2] -0.062 | [3] -0.093 | [4] 0.092 | entinostat 0.02 | vorinostat 0.003 | silmitasertib 0.062 | [5] -0.095 | [6] 0.064
active: citarinostat 0.538

AUP1 (UniProt Q9Y679)
inactive: [1] -0.013 | [2] -0.082 | [4] -0.107 | entinostat 0.061 | vorinostat 0.135 | citarinostat 0.067 | silmitasertib 0.019 | [5] 0.064 | [6] -0.051
active: [3] -0.236

BCLAF1 (UniProt Q9NYF8)
inactive: [1] 0.01 | [2] 0.006 | [3] 0.003 | [4] 0.064 | entinostat 0.047 | vorinostat 0.109 | citarinostat 0.07 | silmitasertib -0.361 | [5] 0.128 | [6] -0.31

BRAP (UniProt Q7Z569)
inactive: [1] 0.056 | [2] -0.063 | [3] -0.113 | [4] -0.015 | entinostat 0.003 | vorinostat 0.069 | citarinostat 0.037 | silmitasertib 0.073 | [5] 0.124 | [6] 0.064

BPHL (UniProt Q86WA6)
inactive: [1] -0.014 | [2] -0.081 | [3] 0.255 | [4] -0.012 | entinostat 0.019 | vorinostat -0.04 | citarinostat -0.042 | silmitasertib -0.045 | [5] -0.06 | [6] 0.051
